From patent US10954262B2, “Tunicamycin analogues” (Oxford University Innovation Limited, priority 2017, dated 2021)

tested on: Bacillus subtilis (EC1524); type: cell-based; conditions: B. subtilis; minimal lethal dose / MIC; 800 μg/mL used when no cytotoxicity at 400 μg/mL

| Structure (SMILES) | RTI (Relative Therapeutic Index) |
| --- | --- |
| CC(C)=CCC[C@H](C)CC(=O)NC1C(OC2OC(C[C@@H](O)[C@H]3O[C@@H](n4ccc(=O)[nH]c4=O)[C@H](O)[C@@H]3O)C(O)C(O)[C@H]2NC(=O)C[C@@H](C)CCC=C(C)C)OC(CO)[C@@H](O)C1O (some centres unmarked) [Compound E1, Di-N-citronoyl-tunicamycin] | 128 |
| CCCCCCC(=O)NC1C(OC2OC(C[C@@H](O)[C@H]3O[C@@H](n4ccc(=O)[nH]c4=O)[C@H](O)[C@@H]3O)C(O)C(O)[C@H]2NC(=O)CCCCCC)OC(CO)[C@@H](O)C1O (some centres unmarked) [Compound E2, Di-N-heptanoyl tunicamycin] | 128 |
| CCCCCCCC(=O)NC1C(OC2OC(C[C@@H](O)[C@H]3O[C@@H](n4ccc(=O)[nH]c4=O)[C@H](O)[C@@H]3O)C(O)C(O)[C@H]2NC(=O)CCCCCCC)OC(CO)[C@@H](O)C1O (some centres unmarked) [Compound E3, Di-N-octanoyl-tunicamycin] | 1026 |
| CCCCCCCCC(=O)NC1C(OC2OC(C[C@@H](O)[C@H]3O[C@@H](n4ccc(=O)[nH]c4=O)[C@H](O)[C@@H]3O)C(O)C(O)[C@H]2NC(=O)CCCCCCCC)OC(CO)[C@@H](O)C1O (some centres unmarked) [Compound E4, Di-N-nonanoyl-tunicamycin] | 33333 |
| CCCCCCCCCC(=O)NC1C(OC2OC(C[C@@H](O)[C@H]3O[C@@H](n4ccc(=O)[nH]c4=O)[C@H](O)[C@@H]3O)C(O)C(O)[C@H]2NC(=O)CCCCCCCCC)OC(CO)[C@@H](O)C1O (some centres unmarked) [Compound E5, Di-N-decanoyl-tunicamycin] | 2051 |
| CCCCCCCCCCC(=O)NC1C(OC2OC(C[C@@H](O)[C@H]3O[C@@H](n4ccc(=O)[nH]c4=O)[C@H](O)[C@@H]3O)C(O)C(O)[C@H]2NC(=O)CCCCCCCCCC)OC(CO)[C@@H](O)C1O (some centres unmarked) [Compound E6, Di-N-undecanoyl-tunicamycin] | 513 |
| CCCCCCCCCCCC(=O)NC1C(OC2OC(C[C@@H](O)[C@H]3O[C@@H](n4ccc(=O)[nH]c4=O)[C@H](O)[C@@H]3O)C(O)C(O)[C@H]2NC(=O)CCCCCCCCCCC)OC(CO)[C@@H](O)C1O (some centres unmarked) [Compound E7, Di-N-dodecanoyl-tunicamycin] | 8 |
| NC1C(O)[C@H](O)C(CO)O[C@@H]1OC1O[C@H](C[C@@H](O)[C@@H]2O[C@@H](n3ccc(=O)[nH]c3=O)[C@H](O)[C@@H]2O)C(O)C(O)[C@H]1N (stereo partly drawn) [D, α-D-glucosamine-(1″-11′)-tunicamyl Uracil Dihydrochloride] | 8 |

Where a name gives a salt, the structure may show the parent alone.
